Data as given in article PMC12650596.
Results are given in words; binding and its absence hold for the method and conditions named. Binding seen in cells or lysates may run through a third protein. These calls come from enrichment with a bait or labelling near it, and not all partners need be listed. A no says only that the protein was not detected with the bait. Tags and fused reporters may be left off the sequences shown.

By UniProt entry, the sequences of proteins in these tests, tags left out. Where a name states a change or a piece, a line headed by the entry shows the natural chain unless it says otherwise.
UniProt Q8N3R9: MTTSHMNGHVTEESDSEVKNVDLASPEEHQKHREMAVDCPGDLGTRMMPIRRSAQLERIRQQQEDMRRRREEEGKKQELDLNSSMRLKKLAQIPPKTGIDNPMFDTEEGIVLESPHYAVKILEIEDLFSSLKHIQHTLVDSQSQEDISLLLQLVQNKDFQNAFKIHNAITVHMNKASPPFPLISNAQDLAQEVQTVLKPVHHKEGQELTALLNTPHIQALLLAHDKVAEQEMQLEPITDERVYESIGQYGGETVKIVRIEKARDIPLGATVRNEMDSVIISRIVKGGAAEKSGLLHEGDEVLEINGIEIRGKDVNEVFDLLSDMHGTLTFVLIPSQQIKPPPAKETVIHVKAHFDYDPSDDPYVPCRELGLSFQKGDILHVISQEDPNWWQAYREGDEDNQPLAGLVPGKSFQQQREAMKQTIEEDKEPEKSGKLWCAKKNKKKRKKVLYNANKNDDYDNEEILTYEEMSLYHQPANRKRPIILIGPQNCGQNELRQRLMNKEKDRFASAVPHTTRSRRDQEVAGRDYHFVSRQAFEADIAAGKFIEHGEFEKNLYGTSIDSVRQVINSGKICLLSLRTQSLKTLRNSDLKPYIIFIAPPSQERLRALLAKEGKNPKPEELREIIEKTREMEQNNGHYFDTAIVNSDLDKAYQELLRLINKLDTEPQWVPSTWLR
UniProt P05556: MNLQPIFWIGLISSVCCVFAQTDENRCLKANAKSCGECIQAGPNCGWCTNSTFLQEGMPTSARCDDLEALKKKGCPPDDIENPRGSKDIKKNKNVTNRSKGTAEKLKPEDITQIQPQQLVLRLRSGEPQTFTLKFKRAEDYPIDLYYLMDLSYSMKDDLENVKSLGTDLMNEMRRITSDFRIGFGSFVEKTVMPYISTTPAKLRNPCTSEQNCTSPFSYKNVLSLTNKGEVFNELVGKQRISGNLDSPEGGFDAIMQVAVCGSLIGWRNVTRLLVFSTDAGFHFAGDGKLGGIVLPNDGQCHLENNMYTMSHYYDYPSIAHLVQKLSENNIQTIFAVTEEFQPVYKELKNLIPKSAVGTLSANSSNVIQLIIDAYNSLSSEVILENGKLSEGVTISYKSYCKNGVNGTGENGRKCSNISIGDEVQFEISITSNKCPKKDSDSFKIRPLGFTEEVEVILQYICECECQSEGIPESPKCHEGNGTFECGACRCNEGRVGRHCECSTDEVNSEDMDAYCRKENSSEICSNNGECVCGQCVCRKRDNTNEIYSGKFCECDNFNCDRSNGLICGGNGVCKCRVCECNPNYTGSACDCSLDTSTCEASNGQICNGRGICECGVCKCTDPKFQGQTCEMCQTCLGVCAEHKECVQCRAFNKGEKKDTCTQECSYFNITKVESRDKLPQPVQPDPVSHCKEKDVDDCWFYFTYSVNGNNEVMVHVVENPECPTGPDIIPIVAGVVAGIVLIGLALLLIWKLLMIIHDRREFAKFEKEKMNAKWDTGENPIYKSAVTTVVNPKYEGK
UniProt Q00341: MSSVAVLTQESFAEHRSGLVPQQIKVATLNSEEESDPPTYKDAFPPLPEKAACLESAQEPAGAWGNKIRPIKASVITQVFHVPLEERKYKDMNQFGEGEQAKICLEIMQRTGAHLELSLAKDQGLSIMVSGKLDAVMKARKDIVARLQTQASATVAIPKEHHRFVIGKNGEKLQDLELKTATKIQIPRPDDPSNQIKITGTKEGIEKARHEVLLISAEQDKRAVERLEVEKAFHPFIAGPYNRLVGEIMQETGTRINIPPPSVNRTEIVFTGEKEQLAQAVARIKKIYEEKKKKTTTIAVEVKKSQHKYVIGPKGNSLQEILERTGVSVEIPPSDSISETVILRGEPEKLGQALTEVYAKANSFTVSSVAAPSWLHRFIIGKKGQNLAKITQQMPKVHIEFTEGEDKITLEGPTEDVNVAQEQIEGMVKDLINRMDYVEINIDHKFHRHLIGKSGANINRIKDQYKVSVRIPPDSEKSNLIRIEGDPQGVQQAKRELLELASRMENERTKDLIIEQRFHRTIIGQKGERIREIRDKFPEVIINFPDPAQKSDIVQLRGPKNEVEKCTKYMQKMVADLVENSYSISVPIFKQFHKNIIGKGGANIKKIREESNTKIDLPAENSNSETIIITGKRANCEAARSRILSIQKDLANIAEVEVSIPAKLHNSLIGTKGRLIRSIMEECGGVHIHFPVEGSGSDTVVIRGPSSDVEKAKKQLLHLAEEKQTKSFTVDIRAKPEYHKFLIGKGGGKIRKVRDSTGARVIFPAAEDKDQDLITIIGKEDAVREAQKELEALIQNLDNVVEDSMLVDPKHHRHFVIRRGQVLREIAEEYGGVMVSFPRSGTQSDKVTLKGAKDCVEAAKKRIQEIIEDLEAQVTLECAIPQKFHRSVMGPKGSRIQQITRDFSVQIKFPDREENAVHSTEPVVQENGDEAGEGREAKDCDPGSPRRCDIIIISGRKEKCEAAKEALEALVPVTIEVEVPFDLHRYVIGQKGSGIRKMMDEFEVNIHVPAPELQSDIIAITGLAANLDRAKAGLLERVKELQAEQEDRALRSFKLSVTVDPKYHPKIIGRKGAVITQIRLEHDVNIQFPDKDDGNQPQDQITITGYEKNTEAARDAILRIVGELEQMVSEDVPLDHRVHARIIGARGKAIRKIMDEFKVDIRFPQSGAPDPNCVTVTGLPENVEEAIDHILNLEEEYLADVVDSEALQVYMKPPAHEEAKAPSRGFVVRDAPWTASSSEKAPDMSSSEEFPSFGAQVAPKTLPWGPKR
UniProt P20020: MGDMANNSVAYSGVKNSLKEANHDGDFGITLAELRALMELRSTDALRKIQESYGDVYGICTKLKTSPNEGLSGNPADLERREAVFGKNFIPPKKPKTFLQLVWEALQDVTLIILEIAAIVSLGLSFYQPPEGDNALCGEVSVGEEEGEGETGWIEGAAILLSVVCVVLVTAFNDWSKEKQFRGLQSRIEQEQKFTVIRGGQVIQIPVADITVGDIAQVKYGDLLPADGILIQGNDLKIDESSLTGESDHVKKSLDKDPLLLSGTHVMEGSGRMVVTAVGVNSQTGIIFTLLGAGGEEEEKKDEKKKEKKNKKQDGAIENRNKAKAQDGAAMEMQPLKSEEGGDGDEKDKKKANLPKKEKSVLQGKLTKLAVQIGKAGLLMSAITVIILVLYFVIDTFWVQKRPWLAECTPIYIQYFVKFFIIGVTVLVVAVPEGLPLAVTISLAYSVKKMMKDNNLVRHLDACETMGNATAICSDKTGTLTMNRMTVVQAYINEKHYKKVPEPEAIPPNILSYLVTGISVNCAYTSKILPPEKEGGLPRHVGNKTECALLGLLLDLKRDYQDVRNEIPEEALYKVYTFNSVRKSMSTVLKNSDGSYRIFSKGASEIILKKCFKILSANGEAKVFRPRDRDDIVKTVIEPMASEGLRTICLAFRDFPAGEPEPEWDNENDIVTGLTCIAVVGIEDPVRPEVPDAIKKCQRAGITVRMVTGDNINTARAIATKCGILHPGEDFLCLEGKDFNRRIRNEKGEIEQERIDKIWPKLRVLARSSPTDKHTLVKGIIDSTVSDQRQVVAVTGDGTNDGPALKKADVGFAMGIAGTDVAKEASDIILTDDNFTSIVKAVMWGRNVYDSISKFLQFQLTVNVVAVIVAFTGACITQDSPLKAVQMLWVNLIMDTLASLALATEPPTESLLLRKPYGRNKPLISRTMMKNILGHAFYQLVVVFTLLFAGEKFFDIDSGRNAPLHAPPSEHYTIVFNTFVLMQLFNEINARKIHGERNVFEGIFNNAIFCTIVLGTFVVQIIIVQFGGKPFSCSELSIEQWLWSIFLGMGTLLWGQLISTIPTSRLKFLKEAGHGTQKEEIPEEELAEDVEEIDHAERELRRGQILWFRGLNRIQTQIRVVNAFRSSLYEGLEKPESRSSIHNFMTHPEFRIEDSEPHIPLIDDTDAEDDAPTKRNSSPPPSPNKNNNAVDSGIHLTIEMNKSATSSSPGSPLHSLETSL
UniProt P11940: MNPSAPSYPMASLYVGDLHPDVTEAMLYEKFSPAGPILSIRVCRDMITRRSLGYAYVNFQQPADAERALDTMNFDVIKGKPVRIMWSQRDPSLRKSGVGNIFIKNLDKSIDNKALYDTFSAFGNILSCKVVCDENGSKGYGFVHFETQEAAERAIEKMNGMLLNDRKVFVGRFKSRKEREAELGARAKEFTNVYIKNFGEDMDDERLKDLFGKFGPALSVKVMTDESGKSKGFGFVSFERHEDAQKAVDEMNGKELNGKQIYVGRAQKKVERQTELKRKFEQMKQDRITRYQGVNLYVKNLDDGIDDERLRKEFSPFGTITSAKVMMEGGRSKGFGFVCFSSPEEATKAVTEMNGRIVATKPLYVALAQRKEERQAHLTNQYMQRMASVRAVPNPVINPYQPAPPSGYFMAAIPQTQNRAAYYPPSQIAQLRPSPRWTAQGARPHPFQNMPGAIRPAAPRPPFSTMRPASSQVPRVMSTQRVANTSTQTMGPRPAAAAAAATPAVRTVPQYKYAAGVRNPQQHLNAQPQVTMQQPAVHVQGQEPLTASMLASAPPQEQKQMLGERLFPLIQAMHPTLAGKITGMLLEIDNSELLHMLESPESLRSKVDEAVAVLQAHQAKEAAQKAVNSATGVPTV

Molecular target: T1, EGFP-hPMP22-BioID2 recombinant fusion protein (peripheral myelin protein 22) (human) (UniProt Q01453)
T1 sequence: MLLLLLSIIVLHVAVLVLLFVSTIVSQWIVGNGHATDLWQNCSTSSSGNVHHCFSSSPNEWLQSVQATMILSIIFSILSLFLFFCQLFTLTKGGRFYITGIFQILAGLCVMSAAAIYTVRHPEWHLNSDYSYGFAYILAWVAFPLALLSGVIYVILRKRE
Experiment: proximity labelling; BioID2 in live stably transfected human Schwann cells, 50 µM biotin for 3 days; RIPA extract, streptavidin Dynabeads pull-down of biotinylated proteins, trypsin digest, LC-MS/MS; compared with control-transfected (EGFP-BioID2) and untransfected CRL cells

**Q.** With “Protein associated with LIN7 1, MAGUK P55 family member (PALS1) (from UniProt Q8N3R9 1-675)” as the molecule, how does the binding read?
**A.** binds

**Q.** For “integrin β1 (ITGB1) (from UniProt P05556 21-798) (receptor)”, which binding is on record?
**A.** no binding

**Q.** How did the binding turn out when “Vigilin (Fragment) (HDLBP) (from UniProt Q00341 1-1268)” was run?
**A.** binds

**Q.** For Integrin alpha-7 (ITGA7) (receptor), which binding is on record?
**A.** binds

**Q.** For “Plasma membrane calcium-transporting ATPase 1 (ATP2B1) (from UniProt P20020 1-1220)”, which binding is on record?
**A.** binds

**Q.** Which binding does the source give for “Polyadenylate-binding protein 1 (PABPC1) (from UniProt P11940 1-636)” here?
**A.** binds

B1: Treacle protein (TCOF1) (protein, UniProt Q13428 1-1488)
chain: MAEARKRRELLPLIYHHLLRAGYVRAAREVKEQSGQKCFLAQPVTLLDIYTHWQQTSELGRKRKAEEDAALQAKKTRVSDPISTSESSEEEEEAEAETAKATPRLASTNSSVLGADLPSSMKEKAKAETEKAGKTGNSMPHPATGKTVANLLSGKSPRKSAEPSANTTLVSETEEEGSVPAFGAAAKPGMVSAGQADSSSEDTSSSSDETDVEGKPSVKPAQVKASSVSTKESPARKAAPAPGKVGDVTPQVKGGALPPAKRAKKPEEESESSEEGSESEEEAPAGTRSQVKASEKILQVRAASAPAKGTPGKGATPAPPGKAGAVASQTKAGKPEEDSESSSEESSDSEEETPAAKALLQAKASGKTSQVGAASAPAKESPRKGAAPAPPGKTGPAVAKAQAGKREEDSQSSSEESDSEEEAPAQAKPSGKAPQVRAASAPAKESPRKGAAPAPPRKTGPAAAQVQVGKQEEDSRSSSEESDSDREALAAMNAAQVKPLGKSPQVKPASTMGMGPLGKGAGPVPPGKVGPATPSAQVGKWEEDSESSSEESSDSSDGEVPTAVAPAQEKSLGNILQAKPTSSPAKGPPQKAGPVAVQVKAEKPMDNSESSEESSDSADSEEAPAAMTAAQAKPALKIPQTKACPKKTNTTASAKVAPVRVGTQAPRKAGTATSPAGSSPAVAGGTQRPAEDSSSSEESDSEEEKTGLAVTVGQAKSVGKGLQVKAASVPVKGSLGQGTAPVLPGKTGPTVTQVKAEKQEDSESSEEESDSEEAAASPAQVKTSVKKTQAKANPAAARAPSAKGTISAPGKVVTAAAQAKQRSPSKVKPPVRNPQNSTVLARGPASVPSVGKAVATAAQAQTGPEEDSGSSEEESDSEEEAETLAQVKPSGKTHQIRAALAPAKESPRKGAAPTPPGKTGPSAAQAGKQDDSGSSSEESDSDGEAPAAVTSAQVIKPPLIFVDPNRSPAGPAATPAQAQAASTPRKARASESTARSSSSESEDEDVIPATQCLTPGIRTNVVTMPTAHPRIAPKASMAGASSSKESSRISDGKKQEGPATQVSKKNPASLPLTQAALKVLAQKASEAQPPVARTQPSSGVDSAVGTLPATSPQSTSVQAKGTNKLRKPKLPEVQQATKAPESSDDSEDSSDSSSGSEEDGEGPQGAKSAHTLGPTPSRTETLVEETAAESSEDDVVAPSQSLLSGYMTPGLTPANSQASKATPKLDSSPSVSSTLAAKDDPDGKQEAKPQQAAGMLSPKTGGKEAASGTTPQKSRKPKKGAGNPQASTLALQSNITQCLLGQPWPLNEAQVQASVVKVLTELLEQERKKVVDTTKESSRKGWESRKRKLSGDQPAARTPRSKKKKKLGAGEGGEASVSPEKTSTTSKGKAKRDKASGDVKEKKGKGSLGSQGAKDEPEEELQKGMGTVEGGDQSNPKSKKEKKKSDKRKKDKEKKEKKKKAKKASTKDSESPSQKKKKKKKKTAEQTV
**Q.** For B1, which binding is on record?
**A.** binds

B2: Structural maintenance of chromosomes protein (SMC1A) (protein, UniProt Q14683 1-1233)
chain: MGFLKLIEIENFKSYKGRQIIGPFQRFTAIIGPNGSGKSNLMDAISFVLGEKTSNLRVKTLRDLIHGAPVGKPAANRAFVSMVYSEEGAEDRTFARVIVGGSSEYKINNKVVQLHEYSEELEKLGILIKARNFLVFQGAVESIAMKNPKERTALFEEISRSGELAQEYDKRKKEMVKAEEDTQFNYHRKKNIAAERKEAKQEKEEADRYQRLKDEVVRAQVQLQLFKLYHNEVEIEKLNKELASKNKEIEKDKKRMDKVEDELKEKKKELGKMMREQQQIEKEIKEKDSELNQKRPQYIKAKENTSHKIKKLEAAKKSLQNAQKHYKKRKGDMDELEKEMLSVEKARQEFEERMEEESQSQGRDLTLEENQVKKYHRLKEEASKRAATLAQELEKFNRDQKADQDRLDLEERKKVETEAKIKQKLREIEENQKRIEKLEEYITTSKQSLEEQKKLEGELTEEVEMAKRRIDEINKELNQVMEQLGDARIDRQESSRQQRKAEIMESIKRLYPGSVYGRLIDLCQPTQKKYQIAVTKVLGKNMDAIIVDSEKTGRDCIQYIKEQRGEPETFLPLDYLEVKPTDEKLRELKGAKLVIDVIRYEPPHIKKALQYACGNALVCDNVEDARRIAFGGHQRHKTVALDGTLFQKSGVISGGASDLKAKARRWDEKAVDKLKEKKERLTEELKEQMKAKRKEAELRQVQSQAHGLQMRLKYSQSDLEQTKTRHLALNLQEKSKLESELANFGPRINDIKRIIQSREREMKDLKEKMNQVEDEVFEEFCREIGVRNIREFEEEKVKRQNEIAKKRLEFENQKTRLGIQLDFEKNQLKEDQDKVHMWEQTVKKDENEIEKLKKEEQRHMKIIDETMAQLQDLKNQHLAKKSEVNDKNHEMEEIRKKLGGANKEMTHLQKEVTAIETKLEQKRSDRHNLLQACKMQDIKLPLSKGTMDDISQEEGSSQGEDSVSGSQRISSIYAREALIEIDYGDLCEDLKDAQAEEEIKQEMNTLQQKLNEQQSVLQRIAAPNMKAMEKLESVRDKFQETSDEFEAARKRAKKAKQAFEQIKKERFDRFNACFESVATNIDEIYKALSRNSSAQAFLGPENPEEPYLDGINYNCVAPGKRFRPMDNLSGGEKTVAALALLFAIHSYKPAPFFVLDEIDAALDNTNIGKVANYIKEQSTCNFQAIVISLKEEFYTKAESLIGVYPEQGDCVISKVLTFDLTKYPDANPNPNEQ
**Q.** With B2 as the molecule, how does the binding read?
**A.** binds

B3: DNA replication licencing factor MCM5 (MCM5) (protein, UniProt P33992 1-734)
chain: MSGFDDPGIFYSDSFGGDAQADEGQARKSQLQRRFKEFLRQYRVGTDRTGFTFKYRDELKRHYNLGEYWIEVEMEDLASFDEDLADYLYKQPAEHLQLLEEAAKEVADEVTRPRPSGEEVLQDIQVMLKSDASPSSIRSLKSDMMSHLVKIPGIIIAASAVRAKATRISIQCRSCRNTLTNIAMRPGLEGYALPRKCNTDQAGRPKCPLDPYFIMPDKCKCVDFQTLKLQELPDAVPHGEMPRHMQLYCDRYLCDKVVPGNRVTIMGIYSIKKFGLTTSRGRDRVGVGIRSSYIRVLGIQVDTDGSGRSFAGAVSPQEEEEFRRLAALPNVYEVISKSIAPSIFGGTDMKKAIACLLFGGSRKRLPDGLTRRGDINLLMLGDPGTAKSQLLKFVEKCSPIGVYTSGKGSSAAGLTASVMRDPSSRNFIMEGGAMVLADGGVVCIDEFDKMREDDRVAIHEAMEQQTISIAKAGITTTLNSRCSVLAAANSVFGRWDETKGEDNIDFMPTILSRFDMIFIVKDEHNEERDVMLAKHVITLHVSALTQTQAVEGEIDLAKLKKFIAYCRVKCGPRLSAEAAEKLKNRYIIMRSGARQHERDSDRRSSIPITVRQLEAIVRIAEALSKMKLQPFATEADVEEALRLFQVSTLDAALSGTLSGVEGFTSQEDQEMLSRIEKQLKRRFAIGSQVSEHSIIKDFTKQKYPEHAIHKVLQLMLRRGEIQHRMQRKVLYRLK
**Q.** Which binding does the source give for B3 here?
**A.** binds

B4: Glutamine--tRNA ligase (QARS1) (enzyme, UniProt P47897 1-775)
chain: MAALDSLSLFTSLGLSEQKARETLKNSALSAQLREAATQAQQTLGSTIDKATGILLYGLASRLRDTRRLSFLVSYIASKKIHTEPQLSAALEYVRSHPLDPIDTVDFERECGVGVIVTPEQIEEAVEAAINRHRPQLLVERYHFNMGLLMGEARAVLKWADGKMIKNEVDMQVLHLLGPKLEADLEKKFKVAKARLEETDRRTAKDVVENGETADQTLSLMEQLRGEALKFHKPGENYKTPGYVVTPHTMNLLKQHLEITGGQVRTRFPPEPNGILHIGHAKAINFNFGYAKANNGICFLRFDDTNPEKEEAKFFTAICDMVAWLGYTPYKVTYASDYFDQLYAWAVELIRRGLAYVCHQRGEELKGHNTLPSPWRDRPMEESLLLFEAMRKGKFSEGEATLRMKLVMEDGKMDPVAYRVKYTPHHRTGDKWCIYPTYDYTHCLCDSIEHITHSLCTKEFQARRSSYFWLCNALDVYCPVQWEYGRLNLHYAVVSKRKILQLVATGAVRDWDDPRLFTLTALRRRGFPPEAINNFCARVGVTVAQTTMEPHLLEACVRDVLNDTAPRAMAVLESLRVIITNFPAAKSLDIQVPNFPADETKGFHQVPFAPIVFIERTDFKEEPEPGFKRLAWGQPVGLRHTGYVIELQHVVKGPSGCVESLEVTCRRADAGEKPKAFIHWVSQPLMCEVRLYERLFQHKNPEDPTEVPGGFLSDLNLASLHVVDAALVDCSVALAKPFDKFQFERLGYFSVDPDSHQGKLVFNRTVTLKEDPGKV
**Q.** B4 was tested. Which binding did it give?
**A.** binds

B5: Isoform 13 of Sodium bicarbonate cotransporter 3 (SLC4A7) (protein, UniProt Q9Y6M7-13 1-1135)
chain: MEADGAGEQMRPLLTRVTSRGPDEEAVVDLGKTSSTVNTKFEKEELESHRAVYIGVHVPFSKESRRRHRHRGHKHHHRRRKDKESDKEDGRESPSYDTPSQRVQFILGTEDDDEEHIPHDLFTEMDELCYRDGEEYEWKETARWLKFEEDVEDGGDRWSKPYVATLSLHSLFELRSCILNGTVMLDMRASTLDEIADMVLDNMIASGQLDESIRENVREALLKRHHHQNEKRFTSRIPLVRSFADIGKKHSDPHLLERNGILASPQSAPGNLDNSKSGEIKGNGSGGSRENSTVDFSKVDMNFMRKIPTGAEASNVLVGEVDFLERPIIAFVRLAPAVLLTGLTEVPVPTRFLFLLLGPAGKAPQYHEIGRSIATLMTDEIFHDVAYKAKDRNDLLSGIDEFLDQVTVLPPGEWDPSIRIEPPKSVPSQEKRKIPVFHNGSTPTLGETPKEAAHHAGPELQRTGRLFGGLILDIKRKAPFFLSDFKDALSLQCLASILFLYCACMSPVITFGGLLGEATEGRISAIESLFGASLTGIAYSLFAGQPLTILGSTGPVLVFEKILYKFCRDYQLSYLSLRTSIGLWTSFLCIVLVATDASSLVCYITRFTEEAFAALICIIFIYEALEKLFDLGETYAFNMHNNLDKLTSYSCVCTEPPNPSNETLAQWKKDNITAHNISWRNLTVSECKKLRGVFLGSACGHHGPYIPDVLFWCVILFFTTFFLSSFLKQFKTKRYFPTKVRSTISDFAVFLTIVIMVTIDYLVGVPSPKLHVPEKFEPTHPERGWIISPLGDNPWWTLLIAAIPALLCTILIFMDQQITAVIINRKEHKLKKGAGYHLDLLMVGVMLGVCSVMGLPWFVAATVLSISHVNSLKVESECSAPGEQPKFLGIREQRVTGLMIFILMGLSVFMTSVLKFIPMPVLYGVFLYMGVSSLKGIQLFDRIKLFGMPAKHQPDLIYLRYVPLWKVHIFTVIQLTCLVLLWVIKVSAAAVVFPMMVLALVFVRKLMDLCFTKRELSWLDDLMPESKKKKEDDKKKKEKEEAERMLQDDDDTVHLPFEGGSLLQIPVKALKYSVDPSIVNISDEMAKTAQWKALSMNTENAKVTRSNMSPDKPVSVKISFEDEPRKKYVDAETSL
**Q.** With B5 as the molecule, how does the binding read?
**A.** binds
